Earlier results on one molecule are cited in patent publication US6124352A (priority 1994, dated 2000).

For the data set the following is noted: in words; cited from earlier work.

For `C[C@@H]1[C@H](O)[C@@H](C)/C=C/C=C/C=C/C=C/C=C/C=C/C=C/[C@H](O[C@@H]2O[C@H](C)[C@@H](O)[C@H](N)[C@@H]2O)C[C@@H]2O[C@](O)(C[C@@H](O)C[C@@H](O)[C@H](O)CC[C@@H](O)C[C@@H](O)CC(=O)O[C@H]1C)C[C@H](O)[C@H]2C(=O)O` [Amphotericin B, amphotericin B], the “water solubility (amphotericin B)” value is on record as “water insoluble”.
